Reference: PMC7819943, “Rice protein-binding microarrays: a tool to detect cis-acting elements near promoter regions in rice”
The list shows a part of the results.

Chains of the proteins cited; added tags and fusions are not shown.
UniProt Q0JBA9, entry or part of it: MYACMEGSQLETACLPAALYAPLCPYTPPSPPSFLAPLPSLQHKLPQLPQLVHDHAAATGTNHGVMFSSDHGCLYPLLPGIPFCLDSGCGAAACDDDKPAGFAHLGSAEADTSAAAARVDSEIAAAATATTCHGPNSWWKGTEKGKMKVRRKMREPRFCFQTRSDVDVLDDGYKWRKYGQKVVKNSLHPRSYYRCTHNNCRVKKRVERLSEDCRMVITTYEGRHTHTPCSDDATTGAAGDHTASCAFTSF

target: OsWRKY34 (Oryza sativa, UniProt Q0JBA9 1-250); assay: protein-binding microarray (RPBM); PBS, 2% BSA, 51.3 ng/ul salmon testes DNA, 50 uM zinc acetate, 200 nM TF, 25 C, 1 h; high values mean tight binding; conditions: protein: recombinant; tags: N-terminal polyhistidine and DsRed monomer fusion (pET32a); label: CyDye5-dUTP incorporated in the synthesized complementary strand; 3' TTTTT single-stranded linker to array surface; dsDNA, one strand shown
Method in brief: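 The binding signal for each feature is its fluorescence intensity in arbitrary units. An Axon 4000B scanner was used to read a custom Agilent array that had been made double-stranded with Cy5-dUTP primer extension, blocked with 2% BSA, incubated at 25 °C for 1 h with 200 nM protein in PBS, 2% BSA, salmon testes DNA and 50 µM zinc acetate, and washed. The protein was an N-terminal polyhistidine–DsRed transcription factor fusion from E. coli BL21-CodonPlus, purified on Ni–NTA.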

Sequence | binding signal
GCAGTCAACAGCTAACACTCTACCCGCCACGGTCGCCAGCCGGAGTCACCTAGTGCAG | 8910 fluorescence intensity (a.u.)
CCTACCTCCTACTCCTTATCCTCCACTTCGTCGCATTACACGGAGTCACCTAGTGCAG | 8750 fluorescence intensity (a.u.)
GGATAAAAGTTTTCACTACATTTGCTTTGTTACACTTGTGCGGAGTCACCTAGTGCAG | 9060 fluorescence intensity (a.u.)
TTCTCTAGGGGAATCGGACTCTTTTTTTTTTGTCTTTTTTCGGAGTCACCTAGTGCAG | 12800 fluorescence intensity (a.u.)
TAGTTGTAAATGTTGTAGCCGTTTGTTGTTGTGTGTAATGCGGAGTCACCTAGTGCAG | 8540 fluorescence intensity (a.u.)
GCGTGTGTGGTTTAAATATAAACTTGTTTGCAATTTTTTTCGGAGTCACCTAGTGCAG | 9150 fluorescence intensity (a.u.)
TATTTTCTTCCCGATTTACTCTGTTTCGAGCGAACAAAGGCGGAGTCACCTAGTGCAG | 8490 fluorescence intensity (a.u.)
GTGAGTGTTTGGGCTAACACTGTATTCTTATTTCTTAATACGGAGTCACCTAGTGCAG | 9490 fluorescence intensity (a.u.)
CATCACCCGACCAGTCAAATCAGGGCGTTATTTTCATGATCGGAGTCACCTAGTGCAG | 8820 fluorescence intensity (a.u.)
ACGAGAAGACCATGTATATTCATTTTCCTTGGCCTATCAACGGAGTCACCTAGTGCAG | 9670 fluorescence intensity (a.u.)
TTGTTGCCATTCTCTTCGTGCATTTGTTTAGTAAAATTATCGGAGTCACCTAGTGCAG | 11800 fluorescence intensity (a.u.)
AATCTACTACCTCTATTTTATATTATAACTTGTTTTGGGTCGGAGTCACCTAGTGCAG | 10700 fluorescence intensity (a.u.)
TCCTATAAAAAAAAAAATCTCCGCAGCCGACTTTCCATTCCGGAGTCACCTAGTGCAG | 8320 fluorescence intensity (a.u.)
TCTATTTTATAATCGGTGTGTTTGACTGGTATTTTTTAGCCGGAGTCACCTAGTGCAG | 8930 fluorescence intensity (a.u.)
CCCACGCACACCCCGCTGCTTCCGATCAAATCGATCCCCACGGAGTCACCTAGTGCAG | 10400 fluorescence intensity (a.u.)
TTTGTGTACTAAATCTCCTTATGGGAGGGGATCGTTTTAACGGAGTCACCTAGTGCAG | 12500 fluorescence intensity (a.u.)
GTTTTTTCGCCCGGTTTTTTCTCGCCGGTTTTTTCGCACGCGGAGTCACCTAGTGCAG | 8290 fluorescence intensity (a.u.)
ATCCTAAAATGTTTGACACCATTGACTTTTTTAAAAATGTCGGAGTCACCTAGTGCAG | 8790 fluorescence intensity (a.u.)
GGCGAACCCCAGCCGCCGTCCCTTGGTCCAGTCCATCTTCCGGAGTCACCTAGTGCAG | 11200 fluorescence intensity (a.u.)
AACACCACGAAACTTTACACCCTATTTGACGTCAAGAACTCGGAGTCACCTAGTGCAG | 8770 fluorescence intensity (a.u.)
TGCTGCCACTAAGTGTTACTATACAACATTCTCCTCTAAACGGAGTCACCTAGTGCAG | 8710 fluorescence intensity (a.u.)
TTTCGTACACTGGTTTGGTTTTCAGAAATGTTTTTCTTTACGGAGTCACCTAGTGCAG | 8320 fluorescence intensity (a.u.)
ATAGTGTTTATTCTAATATTCTTTATATATTGCTTCTTATCGGAGTCACCTAGTGCAG | 8530 fluorescence intensity (a.u.)

Some values from the list:
Value for CATCACCCGACCAGTCAAATCAGGGCGTTATTTTCATGATCGGAGTCACCTAGTGCAG under binding signal: 8820 fluorescence intensity (a.u.)
Value for TCTATTTTATAATCGGTGTGTTTGACTGGTATTTTTTAGCCGGAGTCACCTAGTGCAG under binding signal: 8930 fluorescence intensity (a.u.)
